# The other results are listed elsewhere or left out.
# Experiments:
# Test in all cases: glycan array binding signal (z-score within array); higher = stronger binding
# Conditions in all cases: glycan notation: IUPAC condensed, linker removed
# [1] = target: Man(a1-3)[Man(a1-6)]Man(a1-6)[Man(a1-2)Man(a1-3)]Man(b1-4)GlcNAc(b1-4)GlcNAc
# In short: (§1)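 Columns mapping to the same glycan were averaged after glycan names were converted to IUPAC-condensed notation. The data come from 3228 arrays in the Consortium for Functional Glycomics database, limited to those with an available protein sequence. Binding is reported as a within-array Z-score averaged across arrays of one protein sequence and across linkers.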
# [2] = target: Man(a1-3)[Man(a1-6)]Man(a1-6)[Man(a1-3)]Man
# In short: as §1
# [3] = target: Man(a1-3)[Man(a1-6)]Man(a1-6)[Man(a1-3)]Man(b1-4)GlcNAc(b1-4)GlcNAc
# In short: as §1
# [4] = target: Man(a1-3)[Man(a1-6)]Man(b1-4)GlcNAc(b1-4)GlcNAc
# In short: as §1
# [5] = target: Man(a1-3)[Man(a1-6)]Man(b1-4)GlcNAc(b1-4)[Fuc(a1-6)]GlcNAc
# In short: as §1
# Man(a1-6)Man = target: Man(a1-6)Man
# In short: as §1
# Man(b1-4)GlcNAc = target: Man(b1-4)GlcNAc
# In short: as §1
# MurNAc(b1-4)GlcNAc = target: MurNAc(b1-4)GlcNAc
# In short: as §1
# Neu5Ac(a2-3)Gal = target: Neu5Ac(a2-3)Gal
# In short: as §1
# [6] = target: Neu5Ac(a2-3)Gal(b1-3)GalNAc
# In short: as §1
# [7] = target: Neu5Ac(a2-3)Gal(b1-3)GalNAc(b1-3)Gal(a1-4)Gal(b1-4)Glc
# In short: as §1
# [8] = target: Neu5Ac(a2-3)Gal(b1-3)GalNAc(b1-4)Gal(b1-4)Glc
# In short: as §1
# [9] = target: Neu5Ac(a2-3)Gal(b1-3)GalNAc(b1-4)[Neu5Ac(a2-3)]Gal(b1-4)Glc
# In short: as §1
# [10] = target: Neu5Ac(a2-3)Gal(b1-3)GalNAc(b1-4)[Neu5Ac(a2-8)Neu5Ac(a2-3)]Gal(b1-4)Glc
# In short: as §1
# [11] = target: Neu5Ac(a2-3)Gal(b1-3)GalNAc6S
# In short: as §1
# [12] = target: Neu5Ac(a2-3)Gal(b1-3)GlcNAc
# In short: as §1
# [13] = target: Neu5Ac(a2-3)Gal(b1-3)GlcNAc(b1-2)Man
# In short: as §1
# [14] = target: Neu5Ac(a2-3)Gal(b1-3)GlcNAc(b1-2)Man(a1-3)[GlcNAc(b1-4)][Neu5Ac(a2-3)Gal(b1-3)GlcNAc(b1-2)Man(a1-6)]Man(b1-4)GlcNAc(b1-4)GlcNAc
# In short: as §1
# [15] = target: Neu5Ac(a2-3)Gal(b1-3)GlcNAc(b1-2)Man(a1-3)[Neu5Ac(a2-3)Gal(b1-3)GlcNAc(b1-2)Man(a1-6)]Man(b1-4)GlcNAc(b1-4)GlcNAc
# In short: as §1
# [16] = target: Neu5Ac(a2-3)Gal(b1-3)GlcNAc(b1-2)[Neu5Ac(a2-3)Gal(b1-3)GlcNAc(b1-4)]Man(a1-6)[Neu5Ac(a2-3)Gal(b1-3)GlcNAc(b1-2)Man(a1-3)]Man(b1-4)GlcNAc(b1-4)GlcNAc
# In short: as §1
# [17] = target: Neu5Ac(a2-3)Gal(b1-3)GlcNAc(b1-3)Gal(b1-3)GlcNAc
# In short: as §1
# [18] = target: Neu5Ac(a2-3)Gal(b1-3)GlcNAc(b1-3)Gal(b1-4)GlcNAc
# In short: as §1
# [19] = target: Neu5Ac(a2-3)Gal(b1-3)GlcNAc(b1-3)GalNAc
# In short: as §1
# [20] = target: Neu5Ac(a2-3)Gal(b1-3)GlcNAc(b1-6)GalNAc
# In short: as §1
# [21] = target: Neu5Ac(a2-3)Gal(b1-3)GlcNAc6S
# In short: as §1
# [22] = target: Neu5Ac(a2-3)Gal(b1-3)[Fuc(a1-4)]GlcNAc
# In short: as §1
# [23] = target: Neu5Ac(a2-3)Gal(b1-3)[Fuc(a1-4)]GlcNAc(b1-3)Gal(b1-3)[Fuc(a1-4)]GlcNAc
# In short: as §1
# [24] = target: Neu5Ac(a2-3)Gal(b1-3)[Fuc(a1-4)]GlcNAc(b1-3)Gal(b1-4)[Fuc(a1-3)]GlcNAc
# In short: as §1
# [25] = target: Neu5Ac(a2-3)Gal(b1-3)[GlcNAc(b1-6)]GalNAc
# In short: as §1
# [26] = target: Neu5Ac(a2-3)Gal(b1-3)[Neu5Ac(a2-6)]GalNAc
# In short: as §1
# [27] = target: Neu5Ac(a2-3)Gal(b1-3)[Neu5Ac(a2-6)]GlcNAc(b1-3)[Fuc(a1-3)[Gal(b1-4)]GlcNAc(b1-6)]Gal(b1-4)Glc
# In short: as §1
# [28] = target: Neu5Ac(a2-3)Gal(b1-3)]Neu5Ac(a2-3)Gal(b1-4)]GlcNAc
# In short: as §1
# Neu5Ac(a2-3)Gal(b1-4)Glc = target: Neu5Ac(a2-3)Gal(b1-4)Glc
# In short: as §1
# [29] = target: Neu5Ac(a2-3)Gal(b1-4)GlcNAc
# In short: as §1
# [30] = target: Neu5Ac(a2-3)Gal(b1-4)GlcNAc(b1-2)Man
# In short: as §1
# [31] = target: Neu5Ac(a2-3)Gal(b1-4)GlcNAc(b1-2)Man(a1-3)[GlcNAc(b1-4)][Neu5Ac(a2-3)Gal(b1-4)GlcNAc(b1-2)Man(a1-6)]Man(b1-4)GlcNAc(b1-4)GlcNAc
# In short: as §1
# [32] = target: Neu5Ac(a2-3)Gal(b1-4)GlcNAc(b1-2)Man(a1-3)[Neu5Ac(a2-3)Gal(b1-4)GlcNAc(b1-2)Man(a1-6)]Man(b1-4)GlcNAc(b1-4)GlcNAc
# In short: as §1
# [33] = target: Neu5Ac(a2-3)Gal(b1-4)GlcNAc(b1-2)Man(a1-3)[Neu5Ac(a2-3)Gal(b1-4)GlcNAc(b1-2)Man(a1-6)]Man(b1-4)GlcNAc(b1-4)[Fuc(a1-6)]GlcNAc
# In short: as §1
binder,measurement,setting,value
"Erv46-EDTA (Saccharomyces cerevisiae), P39727 (protein) MKFLVNVALVFMVVYISYIYAAAPEHHHHHHDYDIPTTENLYFQGAMDSVVTRPQLVVDRDRHAKLELNMDVTFPSMPCDLVNLDIMDDSGEMQLDILDAGFTMSRLNSEGRPVGDATELHVGGNGDGTAPVNNDPNYCGPCYGAKDQSQNENLAQEEKVCCQDCDAVRSAYLEAGWAFFDGKNIEQCEREGYVSKINEHLNEGCRIKGSAQINRIQGNLHFAPGKPYQNAYGHFHDTSLYDKTSNLNFNHIINHLSFGKPIQSHSKLLGNDKRHGGAVVATSPLDGRQVFPDRNTHFHQFSYFAKIVPTRYEYLDNVVIETAQFSATFHSRPLAGGRDKDHPNTLHVRGGIPGMFVFFEMSPLKVINKEQ",glycan array binding signal (z-score),[1],-0.513
same,glycan array binding signal (z-score),[2],-0.559
same,glycan array binding signal (z-score),[3],0.011
same,glycan array binding signal (z-score),[4],-0.148
same,glycan array binding signal (z-score),[5],-0.227
same,glycan array binding signal (z-score),Man(a1-6)Man,-0.821
same,glycan array binding signal (z-score),Man(b1-4)GlcNAc,0.331
same,glycan array binding signal (z-score),MurNAc(b1-4)GlcNAc,-0.508
same,glycan array binding signal (z-score),Neu5Ac(a2-3)Gal,0.503
same,glycan array binding signal (z-score),[6],-0.26
same,glycan array binding signal (z-score),[7],-0.165
same,glycan array binding signal (z-score),[8],-0.954
same,glycan array binding signal (z-score),[9],0.009
same,glycan array binding signal (z-score),[10],0.341
same,glycan array binding signal (z-score),[11],-0.694
same,glycan array binding signal (z-score),[12],-0.126
same,glycan array binding signal (z-score),[13],-0.364
same,glycan array binding signal (z-score),[14],0.231
same,glycan array binding signal (z-score),[15],1.06
same,glycan array binding signal (z-score),[16],0.026
same,glycan array binding signal (z-score),[17],-0.673
same,glycan array binding signal (z-score),[18],-0.043
same,glycan array binding signal (z-score),[19],0.343
same,glycan array binding signal (z-score),[20],-0.006
same,glycan array binding signal (z-score),[21],0.638
same,glycan array binding signal (z-score),[22],-0.199
same,glycan array binding signal (z-score),[23],-0.483
same,glycan array binding signal (z-score),[24],0.152
same,glycan array binding signal (z-score),[25],-0.804
same,glycan array binding signal (z-score),[26],0.431
same,glycan array binding signal (z-score),[27],0.079
same,glycan array binding signal (z-score),[28],0.153
same,glycan array binding signal (z-score),Neu5Ac(a2-3)Gal(b1-4)Glc,-0.202
same,glycan array binding signal (z-score),[29],-0.604
same,glycan array binding signal (z-score),[30],-0.454
same,glycan array binding signal (z-score),[31],-0.363
same,glycan array binding signal (z-score),[32],-0.545
same,glycan array binding signal (z-score),[33],0.11

# 2 entries from above, as tab-separated lines:
binder	measurement	setting	value
Erv46-EDTA (Saccharomyces cerevisiae), P39727 (protein) MKFLVNVALVFMVVYISYIYAAAPEHHHHHHDYDIPTTENLYFQGAMDSVVTRPQLVVDRDRHAKLELNMDVTFPSMPCDLVNLDIMDDSGEMQLDILDAGFTMSRLNSEGRPVGDATELHVGGNGDGTAPVNNDPNYCGPCYGAKDQSQNENLAQEEKVCCQDCDAVRSAYLEAGWAFFDGKNIEQCEREGYVSKINEHLNEGCRIKGSAQINRIQGNLHFAPGKPYQNAYGHFHDTSLYDKTSNLNFNHIINHLSFGKPIQSHSKLLGNDKRHGGAVVATSPLDGRQVFPDRNTHFHQFSYFAKIVPTRYEYLDNVVIETAQFSATFHSRPLAGGRDKDHPNTLHVRGGIPGMFVFFEMSPLKVINKEQ	glycan array binding signal (z-score)	[12]	-0.126
same	glycan array binding signal (z-score)	[18]	-0.043

# Source: the supplement of paper PMC8728848
